PubChem BioAssay AID1259299, Sanger Institute | 2017

Test: 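Knock-down screen of kinome and colorectal mutation genes alongside three targeted drugs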 (primary screen)
Cell system: human CAR1 colorectal cancer cells
Reagent: siRNA pool against human genes
Conditions: anchor drug BYL719 1 µM, cetuximab 5 µg/ml or trametinib 10 nM, or DMSO vehicle alone; exposure length not given
Measured: 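Cell viability as fraction of non-targeting siRNA wells, mean of replicates, with robust z-score and a synergy score for each of three drugs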
Scale: viability robust z-score, knock-down alone and viability, knock-down alone (DMSO): higher = more viable cells
Hit rule: 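Essential when viability robust z-score with knock-down alone (DMSO) is below -3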
Calls: active = essential (knock-down alone); inactive = no change
The whole screen tested 794 reagents; shown is an unselected part. Of all reagents, 9 (1.1%) are marked active. 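Calls rest on knock-down alone; synergy scores play no part in calls, and no gene passed the synergy cut.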 No viability above 1 is reported: the scale is capped. Not all columns of the deposit are shown. The record does not give: the amount of reagent, the time to read-out.

{"Target gene":"MYO3B (myosin IIIB)","viability robust z-score, knock-down alone":0.378,"viability, knock-down alone (DMSO) (fraction of control)":0.962,"call":"inactive"}
{"Target gene":"LCK (LCK proto-oncogene, Src family tyrosine kinase)","viability robust z-score, knock-down alone":-0.161,"viability, knock-down alone (DMSO) (fraction of control)":0.912,"call":"inactive"}
{"Target gene":"N4BP2 (NEDD4 binding protein 2)","viability robust z-score, knock-down alone":0.789,"viability, knock-down alone (DMSO) (fraction of control)":1,"call":"inactive"}
{"Target gene":"CDKN2B (cyclin dependent kinase inhibitor 2B)","viability robust z-score, knock-down alone":0.789,"viability, knock-down alone (DMSO) (fraction of control)":1,"call":"inactive"}
{"Target gene":"MAPK10 (mitogen-activated protein kinase 10)","viability robust z-score, knock-down alone":0.225,"viability, knock-down alone (DMSO) (fraction of control)":0.948,"call":"inactive"}
{"Target gene":"PIK3CA","viability robust z-score, knock-down alone":0.789,"viability, knock-down alone (DMSO) (fraction of control)":1,"call":"inactive"}
{"Target gene":"MAPK8 (mitogen-activated protein kinase 8)","viability robust z-score, knock-down alone":0.347,"viability, knock-down alone (DMSO) (fraction of control)":0.959,"call":"inactive"}
{"Target gene":"RNASEL (ribonuclease L)","viability robust z-score, knock-down alone":0.647,"viability, knock-down alone (DMSO) (fraction of control)":0.987,"call":"inactive"}
{"Target gene":"CAD","viability robust z-score, knock-down alone":0.637,"viability, knock-down alone (DMSO) (fraction of control)":0.986,"call":"inactive"}
{"Target gene":"MAP2K6 (mitogen-activated protein kinase kinase 6)","viability robust z-score, knock-down alone":0.789,"viability, knock-down alone (DMSO) (fraction of control)":1,"call":"inactive"}
{"Target gene":"JAK3 (Janus kinase 3)","viability robust z-score, knock-down alone":-0.225,"viability, knock-down alone (DMSO) (fraction of control)":0.906,"call":"inactive"}
{"Target gene":"THNSL1 (threonine synthase like 1)","viability robust z-score, knock-down alone":0.789,"viability, knock-down alone (DMSO) (fraction of control)":1,"call":"inactive"}
{"Target gene":"RYK (receptor like tyrosine kinase)","viability robust z-score, knock-down alone":-0.0965,"viability, knock-down alone (DMSO) (fraction of control)":0.918,"call":"inactive"}
{"Target gene":"ANKK1 (ankyrin repeat and kinase domain containing 1)","viability robust z-score, knock-down alone":-0.0596,"viability, knock-down alone (DMSO) (fraction of control)":0.922,"call":"inactive"}
{"Target gene":"NEK10 (NIMA related kinase 10)","viability robust z-score, knock-down alone":0.789,"viability, knock-down alone (DMSO) (fraction of control)":1,"call":"inactive"}

Only “viability robust z-score, knock-down alone”, for 2 of the entries above:
MAPK8 (mitogen-activated protein kinase 8)	0.347
RNASEL (ribonuclease L)	0.647

The listing continues.
{"Target gene":"CDK5 (cyclin dependent kinase 5)","viability robust z-score, knock-down alone":-1.06,"viability, knock-down alone (DMSO) (fraction of control)":0.829,"call":"inactive"}
{"Target gene":"UCKL1 (uridine-cytidine kinase 1 like 1)","viability robust z-score, knock-down alone":0.789,"viability, knock-down alone (DMSO) (fraction of control)":1,"call":"inactive"}
{"Target gene":"BMPR1A (bone morphogenetic protein receptor type 1A)","viability robust z-score, knock-down alone":0.14,"viability, knock-down alone (DMSO) (fraction of control)":0.94,"call":"inactive"}
{"Target gene":"DUSP21 (dual specificity phosphatase 21)","viability robust z-score, knock-down alone":0.713,"viability, knock-down alone (DMSO) (fraction of control)":0.993,"call":"inactive"}
{"Target gene":"PFKFB3 (6-phosphofructo-2-kinase/fructose-2,6-biphosphatase 3)","viability robust z-score, knock-down alone":-0.466,"viability, knock-down alone (DMSO) (fraction of control)":0.884,"call":"inactive"}
{"Target gene":"PRKAB1 (protein kinase AMP-activated non-catalytic subunit beta 1)","viability robust z-score, knock-down alone":-1.19,"viability, knock-down alone (DMSO) (fraction of control)":0.818,"call":"inactive"}
{"Target gene":"STK17B (serine/threonine kinase 17b)","viability robust z-score, knock-down alone":0.0533,"viability, knock-down alone (DMSO) (fraction of control)":0.932,"call":"inactive"}
{"Target gene":"CILK1 (ciliogenesis associated kinase 1)","viability robust z-score, knock-down alone":-0.27,"viability, knock-down alone (DMSO) (fraction of control)":0.902,"call":"inactive"}
{"Target gene":"GSK3A (glycogen synthase kinase 3 alpha)","viability robust z-score, knock-down alone":-1.9,"viability, knock-down alone (DMSO) (fraction of control)":0.752,"call":"inactive"}
{"Target gene":"ABL1 (ABL proto-oncogene 1, non-receptor tyrosine kinase)","viability robust z-score, knock-down alone":0.789,"viability, knock-down alone (DMSO) (fraction of control)":1,"call":"inactive"}
{"Target gene":"PHKA1 (phosphorylase kinase regulatory subunit alpha 1)","viability robust z-score, knock-down alone":0.573,"viability, knock-down alone (DMSO) (fraction of control)":0.98,"call":"inactive"}
{"Target gene":"CAMKV (CaM kinase like vesicle associated)","viability robust z-score, knock-down alone":0.309,"viability, knock-down alone (DMSO) (fraction of control)":0.956,"call":"inactive"}
{"Target gene":"BTK (Bruton tyrosine kinase)","viability robust z-score, knock-down alone":0.789,"viability, knock-down alone (DMSO) (fraction of control)":1,"call":"inactive"}
